The whole screen tested about 53,000 sequences, of which about 3,700 (7%) were called active.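 The calls were made as follows: active = gene knockdowns whose robust z-score for IL-1 alpha signal is at least 2 or at most -2, so actives lie on both sides; inactive = the rest.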 The list shows a part of the results.
Assay: Components of the Cytosolic LPS Sensing Pathway: Gene Identification via Genome-wide siRNA Screen;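 also: robust z of the log signal after scaling to non-targeting control siRNA wells of the plate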
Conditions: RAW264.7 macrophages, IL-1a HTRF, actives lie on both sides, screened at 100 nM (by protocol), cells primed 5 h with Pam3CSK4 first
Method in brief: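 Mouse macrophage line RAW264.7 is transfected with siRNA (100 nM final), grown 48h, primed with TLR ligand Pam3CSK4 5 h and given intracellular LipidA 24 h. IL-1a in supernatant is read by HTRF and viability by luminescence.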
For GGAGCACCUGAUUUAUCCCTT against Cfap52, the z-score was inactive: -1.52. For GGGUAUAAGGACAAACAUUTT against Atp10b, the z-score was inactive: -0.648. With GGUUGAUUUCACAGAAGAATT against Iqgap1 the z-score was inactive: 0.37. In the case of GGAUCAGAACUCGUUCCCGTT against Rsrc2, the z-score is reported as inactive: -0.0796. In the case of CACUGACCAAAUUAUCACCTT against Olfr763, the z-score is reported as inactive: -1.46. With GGGCAAGGAAUUUAUUACATT against Map2k4 the z-score was inactive: 1.8. With CGAAACUGACCUCUACACUTT against Cnnm1 the z-score was inactive: -0.184. With CCACCAGGGAUCGUUAUAATT against Phyh the z-score was active: 2.25. For GCAUUGGACUCAUAAUUUUTT against Aadat, the z-score was inactive: 0.0399. For GGCAGUUAUCUCCUAAUGCTT against Zfp934, the z-score was inactive: -0.383. For GGUUGGGAGACCCAAUCUGTT against Hyi, the z-score was inactive: -1.49. For GGUGCAUAAUUUAAAGAUCTT against Otud7b, the z-score was inactive: 0.561. With GGAUGAGUACACUGAAAGCTT against Nvl the z-score was inactive: 0.544. In the case of UCCAAGCUGUUGUUUAUACTT against Acsl1, the z-score is reported as inactive: -0.0655. With CCCAGAUACCUGGAAAACGTT against Fam189a1 the z-score was active: -2.17. In the case of CCCAAUAAAGCUUGUGUAATT against Nudt14, the z-score is reported as inactive: 0.321. With GGAGAAAGUCCUUUUUGUUTT against Sh3gl2 the z-score was inactive: 0.849. In the case of GGAAGUAUUAAUGUACAACTT against Msmo1, the z-score is reported as inactive: 0.0519. With GGCACUUCAAAAAAAGAAUTT against Irgm2 the z-score was inactive: -1. With GGGCAUUUACGUCACACGATT against Tax1bp3 the z-score was inactive: -1.13. For GGCAGUGUUUUUAUUUGAUTT against Pold3, the z-score was inactive: -0.839. For GGAUCAACUGGUGACACAGTT against Preb, the z-score was inactive: -0.00996. With CCAUUUUUGAGUAUGUUGGTT against Abraxas2 the z-score was inactive: 0.319. In the case of CCAACAGAACGACUGUGGGTT against Ldlrad4, the z-score is reported as inactive: 0.228. In the case of GGAACCACAUUAUGGAUCUTT against Rbx1, the z-score is reported as inactive: -0.441. For GGUCAAUCAAUCGUACGAATT against Taar1, the z-score was inactive: -0.188. For CGAGCUCAGGCCUAUUAAATT against Cdh12, the z-score was active: 3.39. With GGAAUAUUCUGGUCCAGAGTT against Cdh24 the z-score was inactive: 0.122. In the case of GCAAUUCCUCUUUUAGUCCTT against Spag6l, the z-score is reported as inactive: -1.38. In the case of GGUCAAGAGGAAGGAGCCATT against Setd1b, the z-score is reported as inactive: -0.0466. In the case of GGCUUUAUAAUGUUCUGUUTT against Calcoco1, the z-score is reported as inactive: 0.0799. With CGGACUGGACAUUGAUGAATT against Slc13a1 the z-score was inactive: -0.395. In the case of GGUAGAAAAAGUAAUUUCCTT against Tmprss2, the z-score is reported as inactive: 0.407. For “GGUUUUAUAUUGCUUCUCCTT against 9230109A22Rik”, the z-score was inactive: 0.615. With CCCAAUUAGAAUAAAGCUUTT against Asb11 the z-score was inactive: -1.81. In the case of GGUGGAGAGCUACAAUAUUTT against Pcdhga11, the z-score is reported as inactive: 1.04. For GGUCAUCGAGUUGCUUUUUTT against Gga3, the z-score was inactive: 0.946. In the case of GGUGGACUUCGAGAACAUATT against Cyp2d26, the z-score is reported as inactive: 0.75. With GGAAAGCGAUACCUAAACATT against Atp13a4 the z-score was inactive: 0.753. For CGUCAAUGAAUUCGACUCUTT against Pnlip, the z-score was inactive: 0.348. With GGGAACAGGUUACAUUCAUTT against Gimap8 the z-score was inactive: 0.461. In the case of CCAGAUCUACGAAAGUUUATT against Snx19, the z-score is reported as inactive: -0.282. In the case of CCUUUUGAUGCAUCCCGUCTT against Bpifb3, the z-score is reported as inactive: 0.709. With GGGAUUUCUCGAAUGAAUGTT against Pgm2 the z-score was inactive: -0.767. For GGUCAGUAUCAGAAUGAUCTT against Rft1, the z-score was inactive: -0.831. For GCCUGAUUGUGACGUGGUUTT against Slc19a2, the z-score was inactive: 0.283. In the case of GGGUUUUGAAAGAGGAAAATT against Osbpl8, the z-score is reported as inactive: 1.52. With GGAAAUGGGAUUUAAGGAATT against Fan1 the z-score was inactive: -0.0528. For GGACGAGAAUCAAGAGCAGTT against Cdkn1c, the z-score was inactive: -0.0249. With CCGUGGAGACAGAUCUAGATT against Hif3a the z-score was inactive: 0.486. With GUAUGAUGCACUCCAGUUGTT against Hdac8 the z-score was inactive: -0.244. For UAGGAUUUAGCAAGCCACCTT against Zfp708, the z-score was inactive: -0.151. With UUUCCGUUUUAGGAUGUGATT against Olfr319 the z-score was inactive: 1.

— PubChem BioAssay AID1508600 (Functional Genomics Laboratory (NCATS/FGL), 2020)
